The nature of this data set: general procedure: Fmoc solid-phase peptide synthesis. The following applies: whole synthesis, chromatographic purity; ultra-high-performance liquid chromatography-high-resolution mass spectrometry.

Some peptides are written in HELM: one residue between dots, names in brackets for other building blocks, links after the first $.

As to “PEPTIDE1{H.[Aib].E.G.T.F.T.S.D.V.S.S.Y.L.E.G.Q.A.A.K.E.F.I.A.W.L.V.R.G.R.G.L}|PEPTIDE2{[ODDA].[gGlu].[Aib].[AEEA]}$PEPTIDE1,PEPTIDE2,20:R3-4:R2$$$V2.0”, the “final purity (method not given)” value is reported as “approximately 97%”.

These data come from paper PMC9796023 (Diabetes, Obesity & Metabolism, 2022).
